Fewer than 10 of roughly 1,200 compounds were called active. Calls come from the whole dose curve; as a rule, active = well fitted curve in the direction sought with a large enough effect; inconclusive = small, poorly fitted or top-dose-only effect, or another doubt; inactive = no such curve, though single readings can be large or run the other way. The list shows a part of the results. Residues, ends and D or L forms follow the SMILES beside them.

Protein sequences, listed by entry. Tags and fused reporters are not part of them. Lines headed by an entry give the natural chain unless they say otherwise; changes in a name come on top.
UniProt P11308: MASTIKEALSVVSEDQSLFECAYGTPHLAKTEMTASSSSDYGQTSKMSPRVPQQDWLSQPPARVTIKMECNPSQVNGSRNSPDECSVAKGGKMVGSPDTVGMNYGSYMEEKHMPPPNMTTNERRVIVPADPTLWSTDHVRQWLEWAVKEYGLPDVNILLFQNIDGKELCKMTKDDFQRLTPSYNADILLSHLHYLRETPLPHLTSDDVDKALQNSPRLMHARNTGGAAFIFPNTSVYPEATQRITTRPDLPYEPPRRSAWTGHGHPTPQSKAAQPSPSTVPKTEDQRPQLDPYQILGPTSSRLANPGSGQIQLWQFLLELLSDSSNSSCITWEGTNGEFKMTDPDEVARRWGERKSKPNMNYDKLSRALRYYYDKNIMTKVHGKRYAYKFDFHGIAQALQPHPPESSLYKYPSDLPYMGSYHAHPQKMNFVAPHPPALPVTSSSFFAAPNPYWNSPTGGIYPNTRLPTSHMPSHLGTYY

The test has as its target Transcriptional regulator ERG (Homo sapiens) (UniProt P11308). Briefly: qHTS for Small Molecule Inhibitors of the ERG Ets/DNA interaction: TR assay against cherry picks. Note: % of control where 0% means no effect. The settings on record: ERG Ets domain-DNA fluorescence polarization, Texas red probe; at 154 µM (top of the series). In outline: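 Polarization read sequentially for fluorescein (ex 480/em 535 nm) and Texas red (ex 555/em 632 nm) probes, 5 nM and 100 nM solutions, displaced from His-ERG Ets domain (1 uM solution), pH 7.5 Tris/KCl/EDTA/DTT buffer.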
(qHTS replaces the single test concentration by a dilution series.)
For `Clc1cccc(OCCCN2CCCC2)c1Cl`, the activity change, negative = inhibition was inactive: 4.18%. In the case of `CC(C)C(C(=O)O)N1CCS(=O)(=O)CC1` (configuration not stated) it was inactive: 4.35%. Next, `O=C(O)COc1ccc(F)cc1Br`: inactive: 4.26%; `OCCCC1CCCCN1Cc1nc(Cc2ccccc2Cl)no1` (configuration not stated): inactive: -11%.

With `O=C(CC(c1ccccc1)c1cc(Cl)ccc1O)NCCCN1CCOCC1` (configuration not stated), the activity change, negative = inhibition is inactive: 4.28%. `O=C(NC(c1ccccc1)C(Cl)Cl)c1ccccc1` (configuration not stated): the activity change, negative = inhibition was inactive: -7.15%.

On to `Cc1cnc(CNC(=O)CC2C(=O)NCCN2Cc2ccccc2C(F)(F)F)cn1` (configuration not stated), for which the activity change, negative = inhibition was inactive: 5.3%. For `CCCCSc1cc(=O)n(-c2ccccc2)nc1C(=O)OCC`, the activity change, negative = inhibition was inactive: -3.95%. For `CCCCOc1ccc(C(=O)N2CC(=O)Nc3ccc(Br)cc3C2c2ccc(F)cc2)cc1` (configuration not stated), the activity change, negative = inhibition is inactive: -13.8%. Consider `Clc1ccc(SCc2nc3ccccc3[nH]2)cc1`, for which the activity change, negative = inhibition was inactive: -2.08%. As to `CN(C)c1nc(C=C(C#N)C#N)c(Cl)n1-c1ccc(F)cc1`, the activity change, negative = inhibition was inactive: 4.65%.

In the case of `COC(=O)c1ccccc1SC(CC(=O)c1ccccc1)c1ccc(F)cc1` (configuration not stated), the activity change, negative = inhibition is inactive: -8.26%.

Consider `Cc1occc1C(=O)NCCc1ccc(Cl)cc1`, for which the activity change, negative = inhibition was inactive: -3.8%. `O=C(CN1C(=O)NC(c2ccc(F)cc2)C1=O)Nc1ccc2c(c1)OCCO2` (configuration not stated): the activity change, negative = inhibition was inactive: -0.206%. Next, `Cc1cccc(-n2c(-c3ccccc3)c[nH]c2=S)c1C`: inactive: 6.31%. For the compound `COc1ccc(S(=O)(=O)NCCNC(=O)N2CCOCC2)cc1`, the activity change, negative = inhibition was inactive: 3.17%. In the case of `COc1ccccc1NC(=O)Cn1c(=O)n(CCC(=O)NCC2CCCO2)c(=O)c2cc(OC)c(OC)cc21` (configuration not stated) it was inactive: 0.0258%; in that of `Cn1c(=O)c2[nH]cnc2n(C)c1=O`, inactive: 1.82%. For `O=[N+]([O-])c1ccc(Cc2ccc([N+](=O)[O-])cc2)cc1`, the activity change, negative = inhibition was inactive: -3.11%. Consider `CC(=O)NC(Cc1ccccc1)C(=O)NC(Cc1ccccc1)C(=O)O` (stereo not drawn) (Ac-Phe-Phe-OH; configuration not given here), for which the activity change, negative = inhibition was inactive: 8.39%.

With `CC(CN1CCCCC1)NC(=O)c1cccs1` (configuration not stated), the activity change, negative = inhibition was inactive: -5.25%. Take `CN(C(=O)COC(=O)c1cc(S(=O)(=O)N2CCOCC2)ccc1F)C1CCS(=O)(=O)C1` (configuration not stated): the activity change, negative = inhibition is inactive: 1.52%. Consider `CCOC(=O)NCc1ccc2c(c1)cc(C)n2C`, for which the activity change, negative = inhibition was inactive: 17.6%.

For `Cc1cccc(NC(=O)CN2C(=O)CNC2=O)c1`, the activity change, negative = inhibition was inactive: 4.65%.

Turning to `Cc1cccc(C(=O)N[C@H](C(=O)Nc2ccc(C)c(S(=O)(=O)N(C)C)c2)C(C)C)c1`, the activity change, negative = inhibition is inactive: 1.21%. For the compound `O=[N+]([O-])c1cccnc1Sc1ccccc1Cl`, the activity change, negative = inhibition was inactive: 4.29%. For `CC(=O)Nc1ccc(S(=O)(=O)NCCC(=O)OCC(=O)c2cc(C)ccc2C)cc1`, the activity change, negative = inhibition was inactive: -0.938%.

The values are drawn from PubChem BioAssay AID651803 (National Center for Advancing Translational Sciences (NCATS), 2012).
